Values of other authors in patent US12653874B2, “Nant cancer vaccine” (NantCell, Inc., priority 2016, dated 2026).
For at least one compound, name, drawing or mass did not settle the structure.

Tested on: advanced melanoma

Structure (SMILES) | OS (advanced melanoma, result in words) | ORR (clinical trials, advanced melanoma) | PFS (unresectable or advanced melanoma, result in words)
CN(C)/N=N/c1[nH]cnc1C(N)=O [dacarbazine] | has not been associated with improvements in OS | 10-20% | 
CC(=O)Nc1cccc(-n2c(=O)n(C3CC3)c(=O)c3c(Nc4ccc(I)cc4F)n(C)c(=O)c(C)c32)c1 [trametinib] |  |  | improvement in PFS compared to the chemotherapy group
